Measurements reported in PubChem BioAssay AID504764 (Drosophila RNAi Screening Center, 2011)
The screen tested about 22,000 reagents; below is a random part of those with a known target gene and a result. Over the whole deposit, 403 (1.9%) were called active. 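Unnormalised raw counts per well; ratio z-scores behind the hit calls and whether each hit raises or lowers signal are not deposited.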 Reagents against one gene are numbered here. No sequences are given here. The record does not give: the amount of reagent.

Purpose: 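Genome-wide screen for regulators of Notch-driven gene expression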 (primary screen)
System: Drosophila Kc167 cells
Reagents: long dsRNA against Drosophila genes
Time to read-out: about 5 days (4 days dsRNA, then 24 h after transfection)
Conditions: transfection of constitutively active membrane-tethered Notch lacking the extracellular domain, read 24 h later
Detection: 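Firefly luciferase from an E(spl)m3 reporter with active Notch, plus control-promoter and uninduced reporter wells for normalisation; unnormalised counts, duplicate wells a and b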
Direction: induced reporter light, run 1, well a and induced reporter light, run 1, well b: higher = more light from the Notch target reporter with active Notch; control promoter light, run 1, well a and control promoter light, run 1, well b: higher = more light from the viral control promoter (cell number, transfection, viability); uninduced reporter light, run 1, well a: higher = more light from the Notch target reporter without active Notch
Active means: 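Wells with low control signal or poorly matching duplicates excluded; duplicates averaged; per source plate, z beyond ±2 for induced/control log2 ratio or beyond ±1.8 for induced/uninduced marks a hit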
Meaning of the calls: active = modifier hit (raised or lowered Notch signal); inactive = not a hit

The first 6 records, ahead of the listing:
| Target gene | dsRNA no. | induced reporter light, run 1, well a | induced reporter light, run 1, well b | control promoter light, run 1, well a | control promoter light, run 1, well b | uninduced reporter light, run 1, well a | Call |
| --- | --- | --- | --- | --- | --- | --- | --- |
| Taldo | 1 | 1.68e5 | 1.98e5 | 1.46e5 | 1.47e5 | 12665 | inactive |
| rg | 1 | 95265 | 84395 | 1.01e5 | 1.09e5 | 6525 | inactive |
| rg | 2 | 2.37e5 | 2.23e5 | 3.36e5 | 3.69e5 | 16915 | inactive |
| rg | 3 | 1.29e5 | 1.52e5 | 2.78e5 | 2.49e5 | 8600 | inactive |
| CG17192 | 1 | 1.51e5 | 1.38e5 | 1.99e5 | 1.74e5 | 13100 | inactive |
| glu | 1 | 2.50e5 | 2.15e5 | 1.48e5 | 1.47e5 | 12530 | active |

The listing, repeating the preview:
| Target gene | dsRNA no. | induced reporter light, run 1, well a | induced reporter light, run 1, well b | control promoter light, run 1, well a | control promoter light, run 1, well b | uninduced reporter light, run 1, well a | Call |
| --- | --- | --- | --- | --- | --- | --- | --- |
| Taldo | 1 | 1.68e5 | 1.98e5 | 1.46e5 | 1.47e5 | 12665 | inactive |
| rg | 1 | 95265 | 84395 | 1.01e5 | 1.09e5 | 6525 | inactive |
| rg | 2 | 2.37e5 | 2.23e5 | 3.36e5 | 3.69e5 | 16915 | inactive |
| rg | 3 | 1.29e5 | 1.52e5 | 2.78e5 | 2.49e5 | 8600 | inactive |
| CG17192 | 1 | 1.51e5 | 1.38e5 | 1.99e5 | 1.74e5 | 13100 | inactive |
| glu | 1 | 2.50e5 | 2.15e5 | 1.48e5 | 1.47e5 | 12530 | active |
| PolE4 | 1 | 2.08e5 | 2.06e5 | 1.44e5 | 1.66e5 | 13520 | inactive |
| m-cup | 1 | 2.13e5 | 2.26e5 | 2.44e5 | 2.06e5 | 16785 | inactive |
| Coq5 | 1 | 1.42e5 | 1.28e5 | 2.93e5 | 2.50e5 | 9625 | inactive |
| CG10616 | 1 | 1.98e5 | 1.79e5 | 77685 | 44140 | 12942 | active |
| CG32523 | 1 | 87000 | 1.12e5 | 77260 | 1.08e5 | 7885 | inactive |
| Ziz | 1 | 1.30e5 | 1.26e5 | 1.51e5 | 1.43e5 | 7865 | inactive |
| Ziz | 2 | 1.63e5 | 1.45e5 | 1.96e5 | 1.78e5 | 10635 | inactive |
| CG8892 | 1 | 1.63e5 | 1.75e5 | 1.65e5 | 1.60e5 | 16062 | inactive |
| cyc | 1 | 1.49e5 | 1.30e5 | 1.22e5 | 1.25e5 | 9640 | inactive |
| Mdr49 | 1 | 67535 | 62530 | 54325 | 60250 | 5190 | inactive |
| CG17385 | 1 | 1.00e5 | 96870 | 1.51e5 | 1.43e5 | 11430 | inactive |
| CG16890 | 1 | 2.63e5 | 1.94e5 | 1.92e5 | 2.06e5 | 17100 | inactive |
| CG43347 | 1 | 1.01e5 | 86845 | 1.79e5 | 1.02e5 | 8275 | inactive |
| CG43347 | 2 | 1.20e5 | 1.15e5 | 1.80e5 | 1.85e5 | 8945 | inactive |
| CG43347 | 3 | – | – | – | – | – | inactive |
| ZnT33D | 1 | 1.54e5 | 1.69e5 | 1.54e5 | 1.75e5 | 12205 | inactive |
| wun2 | 1 | 1.77e5 | 1.55e5 | 2.05e5 | 1.98e5 | 14485 | inactive |
| nkd | 1 | 1.11e5 | 1.19e5 | 2.06e5 | 1.42e5 | 9255 | inactive |
| Mocs1 | 1 | 1.28e5 | 1.31e5 | 2.43e5 | 1.41e5 | 6740 | inactive |
| nAChRalpha5 | 1 | 1.02e5 | 73790 | 94420 | 86165 | 10100 | inactive |
| nAChRalpha5 | 2 | 1.45e5 | 1.63e5 | 1.89e5 | 1.84e5 | 13910 | inactive |
| nAChRalpha5 | 3 | 1.31e5 | 1.44e5 | 1.17e5 | 1.26e5 | 12555 | inactive |
| CG31223 | 1 | 22745 | 24732 | 24975 | 24275 | 1900 | inactive |
| PK1-R | 1 | 2.74e5 | 2.38e5 | 1.91e5 | 1.69e5 | 19855 | inactive |
| Rh3 | 1 | 2.02e5 | 1.92e5 | 2.19e5 | 2.52e5 | 15925 | inactive |
| CG9993 | 1 | 38550 | 42705 | 38225 | 48860 | 2065 | inactive |
| CG4259 | 1 | 1.01e5 | 1.03e5 | 1.06e5 | 64125 | 9385 | inactive |
| CG15614 | 1 | 1.62e5 | 1.21e5 | 1.35e5 | 1.39e5 | 8510 | inactive |
| CG9427 | 1 | 1.30e5 | 1.22e5 | 83530 | 89580 | 11635 | inactive |
| mah | 1 | 2.53e5 | 2.11e5 | 2.69e5 | 2.77e5 | 20645 | inactive |
| ouib | 1 | 90090 | 92135 | 73330 | 60685 | 6030 | inactive |
| AOX2 | 1 | 3.24e5 | 2.69e5 | 2.67e5 | 3.82e5 | 23250 | inactive |
| Qtzl | 1 | 1.31e5 | 1.26e5 | 1.77e5 | 1.35e5 | 8415 | inactive |
| CG32388 | 1 | 2.55e5 | 1.81e5 | 2.27e5 | 2.15e5 | 15445 | inactive |
| CG13901 | 1 | 1.04e5 | 1.62e5 | 2.15e5 | 1.77e5 | 5882 | inactive |
| MED26 | 1 | 29315 | 38490 | 33745 | 32295 | 3085 | inactive |
| MED26 | 2 | 1.28e5 | 1.20e5 | 2.98e5 | 3.86e5 | 8415 | active |
| MED26 | 3 | 1.12e5 | 95840 | 1.95e5 | 1.96e5 | 12480 | inactive |
| plx | 1 | 1.13e5 | 90240 | 55960 | 51690 | 8080 | inactive |
| plx | 2 | 41955 | 51020 | 37175 | 32990 | 3325 | inactive |
| COX5BL | 1 | 1.61e5 | 1.40e5 | 1.73e5 | 1.48e5 | 10260 | inactive |
| PIG-H | 1 | 98205 | 1.14e5 | 80190 | 62355 | 5730 | inactive |
| CG10527 | 1 | 78355 | 64405 | 47335 | 56115 | 4465 | inactive |
| Oatp33Ea | 1 | 2.17e5 | 1.79e5 | 1.61e5 | 1.55e5 | 13235 | inactive |
